Test system: Caco-2 monolayers
Assay: Transport of peroxidase conjugate across Caco-2 monolayers
Conditions: in the presence of the conjugate
Description: A two-chamber Caco-2 model was used to evaluate the transport of a conjugate comprising peroxidase and a peptide comprising an amino acid sequence of SEQ. ID. NO.:1 across the intestinal barrier (IB) in vitro. […] The medium containing isotope-labeled compound, the SEQ. ID. NO.:1-Peroxidase conjugate ([…]) or Control Peroxidase conjugate ([…]) was added to the apical side of cultured Caco-2 monolayers.

## SEQ. ID. NO.:1-Peroxidase Conjugate (CRVLDGDRTRWG; peroxidase conjugate; MOD_RES (1) …ON)
2 hours
  Transport of 3H-Mannitol, P, %: 6.6%
4 hours
  Transport of 3H-Mannitol, P, %: 12.4%
